PubChem BioAssay AID1508597 | Cure First, 2020

- Assay: 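Genes whose silencing sensitises or protects ovarian cancer cells against rucaparib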 (primary screen)
- System: human ovarian carcinoma lines grown from tumours: OCI-P5x (papillary serous) and OCI-C5x (clear cell)
- Knock-down reagent: siRNA pool against human genes, 1.25 pmol siRNA per well
- Time to read-out: 72 h or 96 h, depending on the cell culture
- Conditions: rucaparib 20 µM (about IC30) or vehicle, present until read-out
- Rucaparib or vehicle: Vehicle
- Cell line: OCI-P5x (serous)
- Measured: 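ATP luminescence measured at 72 or 96 h according to the culture, then normalised and expressed as percent viability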
- Scale: viability, normalised: higher = more viable cells remaining
- Hit rule: 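Active when normalised viability falls below 80 percent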
- Calls: active = viability under 80%; inactive = viability 80% or more
This is a random part of the about 2,100 reagents, in one setting of the screen. 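Calls flag viability under 80% in either arm, not effects specific to rucaparib; the reference for percent is not stated.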 Some reagents were tested in more than one well and are listed for each. Not given: the 100% reference.

NAP1L4 [SID405527059], technical replicate 1 | viability, normalised (%) = 44.2; call = active
NAP1L4 [SID405527059], technical replicate 2 | viability, normalised (%) = 55.6; call = active
NAP1L4 [SID405527059], technical replicate 3 | viability, normalised (%) = 62.2; call = active
SENP5 [SID405526348], technical replicate 1 | viability, normalised (%) = 59.2; call = active
SENP5 [SID405526348], technical replicate 2 | viability, normalised (%) = 49.3; call = active
SENP5 [SID405526348], technical replicate 3 | viability, normalised (%) = 66.3; call = active
KMT2C [SID405528009], technical replicate 1 | viability, normalised (%) = 74.2; call = active
KMT2C [SID405528009], technical replicate 2 | viability, normalised (%) = 75.5; call = active
KMT2C [SID405528009], technical replicate 3 | viability, normalised (%) = 49.6; call = active
HDAC2 [SID405526840], technical replicate 1 | viability, normalised (%) = 59.8; call = active
HDAC2 [SID405526840], technical replicate 1 | viability, normalised (%) = 75.6; call = active
HDAC2 [SID405526840], technical replicate 2 | viability, normalised (%) = 71.3; call = active
HDAC2 [SID405526840], technical replicate 2 | viability, normalised (%) = 74.7; call = active
HDAC2 [SID405526840], technical replicate 3 | viability, normalised (%) = 67.8; call = active
HDAC2 [SID405526840], technical replicate 3 | viability, normalised (%) = 66.7; call = active
SP3 [SID405526493], technical replicate 1 | viability, normalised (%) = 45.3; call = active
SP3 [SID405526493], technical replicate 2 | viability, normalised (%) = 49.8; call = active
SP3 [SID405526493], technical replicate 3 | viability, normalised (%) = 100; call = inactive
FLT4 [SID405526786], technical replicate 1 | viability, normalised (%) = 62.8; call = active
FLT4 [SID405526786], technical replicate 1 | viability, normalised (%) = 83.1; call = inactive
FLT4 [SID405526786], technical replicate 2 | viability, normalised (%) = 62.2; call = active
FLT4 [SID405526786], technical replicate 2 | viability, normalised (%) = 86.6; call = inactive
FLT4 [SID405526786], technical replicate 3 | viability, normalised (%) = 64.7; call = active
FLT4 [SID405526786], technical replicate 3 | viability, normalised (%) = 76.7; call = active

Targets listed so far whose target name begins with F or f (6):
FLT4 [SID405526786], technical replicate 1 | viability, normalised (%) = 62.8; call = active
FLT4 [SID405526786], technical replicate 1 | viability, normalised (%) = 83.1; call = inactive
FLT4 [SID405526786], technical replicate 2 | viability, normalised (%) = 62.2; call = active
FLT4 [SID405526786], technical replicate 2 | viability, normalised (%) = 86.6; call = inactive
FLT4 [SID405526786], technical replicate 3 | viability, normalised (%) = 64.7; call = active
FLT4 [SID405526786], technical replicate 3 | viability, normalised (%) = 76.7; call = active
